Laboratory results: PubChem BioAssay AID1671190 (National Center for Advancing Translational Sciences (NCATS), 2021)
Hit rate of the full screen: of about 580,000 compounds, about 6,100 (1.1%) were called active. The shares of active, inactive and inconclusive entries below differ from those in the screen. Calls follow the shape of the dose curve; as a rule, active = well fitted inhibition curve with a large enough effect; inconclusive = small, poorly fitted or top-dose-only effect, or another doubt; inactive = no such curve, though single readings can be large or run the other way. Where the call is inconclusive, the potency comes from a doubtful curve fit.

By UniProt entry, the sequences of proteins in these tests, tags left out. Where a name states a change or a piece, a line headed by the entry shows the natural chain unless it says otherwise.
UniProt P18054: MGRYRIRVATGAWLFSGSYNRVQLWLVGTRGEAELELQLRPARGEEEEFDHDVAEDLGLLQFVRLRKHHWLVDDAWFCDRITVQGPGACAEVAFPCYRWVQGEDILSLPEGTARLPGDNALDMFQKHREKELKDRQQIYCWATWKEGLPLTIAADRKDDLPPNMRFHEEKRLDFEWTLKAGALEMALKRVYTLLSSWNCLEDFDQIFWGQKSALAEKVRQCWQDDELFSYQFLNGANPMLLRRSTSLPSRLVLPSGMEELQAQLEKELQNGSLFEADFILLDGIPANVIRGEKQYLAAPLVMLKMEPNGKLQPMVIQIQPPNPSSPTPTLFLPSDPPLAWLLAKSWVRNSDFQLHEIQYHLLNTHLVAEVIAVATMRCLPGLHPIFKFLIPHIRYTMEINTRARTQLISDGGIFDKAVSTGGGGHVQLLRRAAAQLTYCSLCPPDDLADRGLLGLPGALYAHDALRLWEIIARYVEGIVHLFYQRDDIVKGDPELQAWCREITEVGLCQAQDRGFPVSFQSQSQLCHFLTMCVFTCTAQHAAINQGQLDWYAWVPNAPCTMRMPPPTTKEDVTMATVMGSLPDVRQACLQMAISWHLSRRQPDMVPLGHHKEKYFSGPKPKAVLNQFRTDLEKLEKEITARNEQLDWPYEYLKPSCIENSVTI

biological target: Polyunsaturated fatty acid lipoxygenase ALOX12 (Homo sapiens) (UniProt P18054); test: Primary qHTS assay for inhibitors of human arachidonate 12S-lipoxygenase (ALOX12): Round 2; settings: purified 12hLO, xylenol orange hydroperoxide absorbance; series mostly up to 108 µM
In short: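 Purified human 12hLO at 150 nM in 25 mM Hepes, 0.01% Triton X-100, pH 7.0, preincubated 15 min at room temperature with compound. Reaction started with 40 uM arachidonic acid, 30 min at room temperature. Hydroperoxide measured by Fe-xylenol orange, 573/405 nm absorbance ratio.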
Potency is read from the fitted curve at half-maximal effect.

| SMILES | Potency |
| --- | --- |
| Cc1ccc(NC(=O)c2oc3ccccc3c2C)cc1C | inactive |
| COc1cccc(NC(=O)CSc2nnc(-c3cc(-c4ccccn4)nc4ccccc34)o2)c1 | inactive |
| O=C(CCCC(=O)OCC(Cl)=C(Cl)Cl)Nc1ccc(F)cc1 | inconclusive: 0.251 µM [inhibitor, full curve, poor fit] |
| O=C(c1cc(-c2csc(-c3ccccc3)n2)c[nH]1)N1CCCC1 | inconclusive: 28.2 µM [inhibitor, partial curve, poor fit] |
| O=C(Nc1cccc([N+](=O)[O-])c1)OCc1ccc2c(c1)OCO2 | inconclusive: 79.4 µM [inhibitor, single point] |
| COc1cc(C(=O)NCCNc2nc3cc(C)ccc3cc2C#N)cc(OC)c1OC | inconclusive: 31.6 µM [inhibitor, partial curve, poor fit] |
| O=C(NCCc1ccccc1)c1ccc2c(c1)CCN2S(=O)(=O)c1ccc(Cl)cc1 | inconclusive: 56.2 µM [inhibitor, partial curve, poor fit] |
| N#Cc1ccc(CCC(=O)c2cccs2)cc1 | inconclusive: 10 µM [inhibitor, partial curve, poor fit] |
| Cc1nc(NC(=O)c2ccc(Br)o2)ccc1Br | inconclusive: 126 µM [inhibitor, partial curve, poor fit] |
| Cc1c(/C=N/n2cnnc2)c2ccccc2n1C | inconclusive: 39.8 µM [inhibitor, partial curve, poor fit] |
| Cc1ccc(S(=O)(=O)Nc2ccccc2N2CCOCC2)cc1 | inconclusive: 79.4 µM [inhibitor, single point] |
| C[C@H](CO)N1C[C@H](C)[C@@H](CN(C)S(=O)(=O)c2ccccc2)Oc2ccc(NC(=O)Cn3cnnn3)cc2C1=O | inactive |
| S=C(NCc1ccccc1)NNc1nc2ccccc2[nH]1 | active: 31.6 µM |
| Cc1ccc2c(CC(=O)Nc3ccc(S(=O)(=O)N4CCCC(C)C4)cc3)coc2c1 (stereo not given) | inactive |
| N#Cc1c(Cl)c(Cl)c2nnc(-c3ccc(Br)cc3)n2c1Cl | inconclusive: 35.5 µM [inhibitor, partial curve, poor fit] |
| Cc1cccc(/C=N/Nc2cc(C(F)(F)F)ccc2Cl)c1 | inconclusive: 0.0891 µM [inhibitor, full curve, poor fit] |
| O=S(=O)(N=C1C=CC(=NS(=O)(=O)c2ccccc2)c2ccccc21)c1ccccc1 | inconclusive: 44.7 µM [inhibitor, partial curve, poor fit] |
| O=C(CCS(=O)(=O)c1cccc2nsnc12)NCc1ccccc1 | inconclusive: 50.1 µM [inhibitor, partial curve, poor fit] |
| Cc1cc(C)c2c(CCCC(=O)O)c(-c3ccccn3)[nH]c2c1 | inconclusive: 3.55 µM [inhibitor, full curve] |
| Cc1ccc(S(=O)(=O)Nc2nc3ccccc3nc2N2CCN(c3ccccc3F)CC2)cc1 | inactive |
| CCCCCCNC(=O)N1C/C=C\C(c2ccc(OC)cc2)N(Cc2ccc(F)cc2)C(=O)C1 (stereo not given) | inconclusive: 44.7 µM [inhibitor, partial curve, poor fit] |
| O=C(COC(=O)CNC(=O)c1ccco1)NCCN1C(=O)CSC1=O | inactive |

| SMILES | Potency |
| --- | --- |
| Cc1ccc(NC(=O)C2=C(C(=O)O)CCCC2)cc1F | inconclusive: 1.58 µM [inhibitor, full curve, poor fit] |
| COc1cc(NS(=O)(=O)c2ccc3[nH]c(=O)oc3c2)cc(OC)c1 | inconclusive: 50.1 µM [inhibitor, partial curve, poor fit] |
| Cc1ncc2c(c1CNC(=O)Cc1ccc(C(F)(F)F)cc1)CCNC2 | inconclusive: 28.2 µM [inhibitor, full curve] |
| COc1ccccc1NC(=O)Cc1csc(NC(=O)c2ccccc2)n1 | inactive |
| Cc1ccc(C(=O)Nc2ccc(CC(=O)O)cc2)o1 | inactive |
| Cc1ccc(C(=O)NC(=S)Nc2c(C)ccc3nsnc23)cc1 | inconclusive: 25.1 µM [inhibitor, full curve, poor fit] |
| N=C(N)c1ccc(OCc2ccncc2)cc1 | active: 8.91 µM |
| Cc1ccc(Oc2ncc(-c3ccc(Cl)cc3)cn2)cc1 | inactive |
| CC(C)NC(=O)C1(C)CCN1C(=O)c1cccc(F)c1 (stereo not given) | inconclusive: 56.2 µM [inhibitor, partial curve, poor fit] |
| Fc1cccc(/C=N/NC(=S)Nc2ccccc2Cl)c1 | inconclusive: 50.1 µM [inhibitor, partial curve, poor fit] |
| CN(C)c1cccc(Nc2ccc(-c3ccc(OC(F)(F)F)cc3)cn2)c1 | inconclusive: 112 µM [inhibitor, single point] |
| CCOc1ccc(-c2cc3c(=O)n(CC(=O)NCc4ccccc4)ccn3n2)cc1 | inconclusive: 100 µM [inhibitor, partial curve, poor fit] |
| CC(C)NC(=O)NC[C@H]1OC[C@@H](NCc2ncc[nH]2)[C@@H]1O | inconclusive: 3.55 µM [inhibitor, full curve, poor fit] |
| Cc1cccc(NC(=O)COc2cccc(/C=N/O)c2)c1C | inconclusive: 89.1 µM [inhibitor, single point] |
| Cc1ccc(S(=O)(=O)N2CCN(C(=O)c3ccc(S(=O)(=O)N4CCCC4)cc3)CC2)cc1 | inactive |
| O=C(C1=C(O)C(=O)N(c2ncccn2)C1c1cccc(Cl)c1)c1ccco1 (stereo not given) | inconclusive: 1.26 µM [inhibitor, full curve, poor fit] |
| O=C(C1CC(c2ccccc2O)=NO1)N1CCCC1 (stereo not given) | inconclusive: 2 µM [inhibitor, full curve, poor fit] |
| O=C(CNS(=O)(=O)c1ccccc1F)Nc1ccc(N2CCOCC2)cc1 | inconclusive: 50.1 µM [inhibitor, partial curve, poor fit] |
| O=C(O)c1nnn(-c2ccc(Br)cc2)c1C(F)(F)F | inconclusive: 35.5 µM [inhibitor, full curve, poor fit] |
| CCOC(=O)c1ccc(S(=O)(=O)Nc2cc(S(=O)(=O)Nc3ccc(OC)cc3)ccc2O)cc1 | inconclusive: 4.47 µM [inhibitor, full curve, poor fit] |
| O=C(O)CCc1ccc(-c2ccc(Br)cc2)n1CC(=O)O | inconclusive: 22.4 µM [inhibitor, partial curve, poor fit] |
| CCC(C)Nc1ncnc2c1CN(C1CCNCC1)C(=O)CN2C (stereo not given) | inconclusive: 15.8 µM [inhibitor, full curve] |

13 entries out of the list, arranged by SMILES length, descending.

| SMILES | Potency |
| --- | --- |
| CCOC(=O)c1ccc(S(=O)(=O)Nc2cc(S(=O)(=O)Nc3ccc(OC)cc3)ccc2O)cc1 | inconclusive: 4.47 µM [inhibitor, full curve, poor fit] |
| O=C(C1=C(O)C(=O)N(c2ncccn2)C1c1cccc(Cl)c1)c1ccco1 (stereo not given) | inconclusive: 1.26 µM [inhibitor, full curve, poor fit] |
| COc1cc(NS(=O)(=O)c2ccc3[nH]c(=O)oc3c2)cc(OC)c1 | inconclusive: 50.1 µM [inhibitor, partial curve, poor fit] |
| O=C(CNS(=O)(=O)c1ccccc1F)Nc1ccc(N2CCOCC2)cc1 | inconclusive: 50.1 µM [inhibitor, partial curve, poor fit] |
| Cc1ncc2c(c1CNC(=O)Cc1ccc(C(F)(F)F)cc1)CCNC2 | inconclusive: 28.2 µM [inhibitor, full curve] |
| COc1ccccc1NC(=O)Cc1csc(NC(=O)c2ccccc2)n1 | inactive |
| Cc1ccc(C(=O)NC(=S)Nc2c(C)ccc3nsnc23)cc1 | inconclusive: 25.1 µM [inhibitor, full curve, poor fit] |
| CCC(C)Nc1ncnc2c1CN(C1CCNCC1)C(=O)CN2C (stereo not given) | inconclusive: 15.8 µM [inhibitor, full curve] |
| CC(C)NC(=O)C1(C)CCN1C(=O)c1cccc(F)c1 (stereo not given) | inconclusive: 56.2 µM [inhibitor, partial curve, poor fit] |
| Cc1ccc(NC(=O)C2=C(C(=O)O)CCCC2)cc1F | inconclusive: 1.58 µM [inhibitor, full curve, poor fit] |
| Cc1ccc(C(=O)Nc2ccc(CC(=O)O)cc2)o1 | inactive |
| O=C(C1CC(c2ccccc2O)=NO1)N1CCCC1 (stereo not given) | inconclusive: 2 µM [inhibitor, full curve, poor fit] |
| N=C(N)c1ccc(OCc2ccncc2)cc1 | active: 8.91 µM |

2 entries from above, with bars between the fields.
SMILES | Potency
Cc1cccc(NC(=O)COc2cccc(/C=N/O)c2)c1C | inconclusive: 89.1 µM [inhibitor, single point]
Cc1ccc(S(=O)(=O)N2CCN(C(=O)c3ccc(S(=O)(=O)N4CCCC4)cc3)CC2)cc1 | inactive

(continued)

| SMILES | Potency |
| --- | --- |
| O=C(NCc1n[nH]c(=S)n1-c1ccc(Br)cc1)c1ccc(S(=O)(=O)N2CCOCC2)cc1 | inconclusive: 50.1 µM [inhibitor, partial curve, poor fit] |
| Cc1noc(-c2cn(C3CCCN(C(=O)c4ccc(OC(F)(F)F)cc4)C3)nn2)n1 (stereo not given) | inactive |
| CC1CCCCN1CCCNC(=O)Cn1ncc2c3ccccc3n(Cc3ccccc3)c2c1=O (stereo not given) | inconclusive: 100 µM [inhibitor, partial curve, poor fit] |
| CCCNS(=O)(=O)c1cccc2cc(C)cnc12 | inconclusive: 28.2 µM [inhibitor, single point] |
| COC(CN(C(=O)CCl)C(C(=O)NC1CCCCC1)c1ccccc1C)OC (stereo not given) | inconclusive: 141 µM [inhibitor, partial curve, poor fit] |
| COc1ccccc1-c1nnc(-c2ccc(N3CCOCC3)cc2)o1 | inconclusive: 89.1 µM [inhibitor, single point] |
| COc1ccccc1N1CCN(Cc2nc(-c3cc(OC)c(OC)c(OC)c3)no2)CC1 | inactive |
| NC(N)=N/N=C/c1ccccc1 | inconclusive: 44.7 µM [inhibitor, partial curve, poor fit] |
| O=C(O)/C(=C\c1ccco1)NC(=O)c1ccc(Br)o1 | inconclusive: 35.5 µM [inhibitor, single point] |
| O=C(Nc1nnc(SCC(=O)N2CCOCC2)s1)c1ccccc1 | inactive |
| Cc1c(Cl)ccc2c1NC(=O)C21NC(CCC(N)=O)[C@H]2C(=O)N(c3ccc(Cl)cc3)C(=O)[C@H]21 (stereo not given in full) | inconclusive: 56.2 µM [inhibitor, partial curve, poor fit] |
| CC(=O)NCCNc1nc2cc(-c3cscc3C)sc2c(=O)n1C | inconclusive: 79.4 µM [inhibitor, partial curve, poor fit] |
| COC(=O)c1ccc(CN2CCCC(C(=O)c3ccccc3OC)C2)cc1 (stereo not given) | inconclusive: 44.7 µM [inhibitor, partial curve, poor fit] |
| CC(C)NC(=O)C[C@@H]1C[C@H]2O[C@H](CNC3CCC(F)(F)CC3)[C@@H](O)[C@H]2O1 | inactive |
| CCN(CC)c1ccc(NS(=O)(=O)c2ccc(OC)cc2)cc1 | inactive |
| O=C1CC(c2noc(-c3ccccc3F)n2)CN1c1ccc(Cl)cc1 (stereo not given) | inconclusive: 22.4 µM [inhibitor, partial curve, poor fit] |
| CCOc1ccccc1CNS(=O)(=O)c1ccc2c(c1)oc(=O)n2C | active: 3.98 µM |
| COc1ccc(C2OC(=O)CC2C(=O)NCc2ccc(F)cc2)cc1OC (stereo not given) | inconclusive: 112 µM [inhibitor, single point] |
| CCOC(=O)c1cn2nc(Oc3cccc(C(F)(F)F)c3)ccc2n1 | inconclusive: 100 µM [inhibitor, partial curve, poor fit] |
| Cc1nn(CC(=O)Nc2ccccc2N2CCCCC2)c(=O)c2ccccc12 | inconclusive: 126 µM [inhibitor, single point] |
| Cc1ccc(C(=O)/C=C\C(=O)c2ccc(C)cc2)cc1 | inconclusive: 17.8 µM [inhibitor, full curve] |
